Reference: patent US9757455B2, “Oral therapeutic compound delivery system” (Johnson & Johnson Consumer Inc., priority 2005, dated 2017)
Structures can show the parent of a compound that is named as a salt. At least one structure is not confirmed: it was looked up by name or label, or the drawing left a doubt.

Key:
[1] = Dissolution, USP dissolution apparatus 2, 900 mL 0.0033 N hydrochloric acid, 30 rpm, 37° C.; assay type: physicochemical; conditions: for >50% dissolution in 3 min at 30 rpm: drug formulated according to the invention, 900 mL 0.0033 N HCl; for % dissolved in 900 mL 0.0033 N HCl: basic and amphoteric drugs in formulations according to the invention (Table 32)
Method: (§1) Testing was conducted in a dissolution medium containing 900 mL 0.0033 N hydrochloric acid (HCl) at 37° C. which discriminates better between fast dissolving formulations than more acidic dissolution media where the effect of high acid concentration tends to mask formulation effects on dissolution. 900 mL of this medium contains the absolute amount of acid estimated to be present in the gastric contents in vivo, namely 3 millimoles.
(§2) Testing at was conducted at a stirring speed of 30 rpm and also at 0 rpm which provides more discrimination between formulations. To achieve maximum dissolution, the stirring speed was increased to 250 rpm for 10 minutes after 20 minutes for measurements at 30 rpm, and after 60 minutes for measurements at 0 rpm.
(§3) Unless otherwise stated, drug concentrations were measured using a Varian Cary 50 UV-Vis Spectrophotometer set at an appropriate wavelength using flow through cells for automatic continuous sampling. For each drug, the optimal wavelength was selected after running UV scans in the dissolution medium.
A suitable C18 column and guard column were used. Results were processed using Waters Empower software.

Solubility in water = conditions: for Volume of water (mL) to dissolve dose: dose per tablet as in label
[2] = Dissolution, USP dissolution apparatus 2, 900 mL 0.0033 N hydrochloric acid, 0 rpm, 37° C.; assay type: physicochemical; conditions: for % dissolved in 900 mL 0.0033 N HCl: basic and amphoteric drugs in formulations according to the invention (Table 32), 0 rpm; for % drug dissolved in 900 mL 0.0033 N HCl at 0 rpm: pH modulating agent: Bicarbonate
Method: as §1
Dissolution results without stirring may be of in vivo significance in conditions where there is gut stasis or reduced gastric activity.
as §2, §3

SMILES | >50% dissolution in 3 min at 30 rpm [1] | Volume of water (mL) to dissolve dose (Solubility in water) | % of the dose that will dissolve in 900 mL (Solubility in water; when formulated according to the present invention, based on solubility and dose) | % dissolved in 900 mL 0.0033 N HCl ([2]; 180 sec) | % dissolved in 900 mL 0.0033 N HCl ([2]; 300 sec) | % dissolved in 900 mL 0.0033 N HCl ([2]; 15 minutes) | % dissolved in 900 mL 0.0033 N HCl ([2]; 30 minutes) | % drug dissolved in 900 mL 0.0033 N HCl at 0 rpm ([2]; 300 sec (Table 33)) | % drug dissolved in 900 mL 0.0033 N HCl at 0 rpm ([2]; 15 min (Table 33)) | % drug dissolved in 900 mL 0.0033 N HCl at 0 rpm ([2]; 30 min (Table 33)) | % dissolved in 900 mL 0.0033 N HCl ([1]; 180 sec, 30 rpm) | % dissolved in 900 mL 0.0033 N HCl ([1]; 300 sec, 30 rpm) | % dissolved in 900 mL 0.0033 N HCl ([1]; 15 minutes, 30 rpm) | % dissolved in 900 mL 0.0033 N HCl ([1]; 30 minutes, 30 rpm (increased to 250 rpm after 20 minutes)) | Volume (mL) of water to dissolve dose (Solubility in water; dose (mg) of each drug as in Table 78)
Cc1ccc(-c2cc(C(F)(F)F)nn2-c2ccc(S(N)(=O)=O)cc2)cc1 [Celecoxib] | x (does not meet the dissolution performance of the invention) | 58,803 mL | around 1.6% |  |  |  |  |  |  |  |  |  |  |  | 
C[C@@H]1C[C@H]2[C@@H]3CCC4=CC(=O)C=C[C@]4(C)[C@@]3(F)[C@@H](O)C[C@]2(C)[C@@]1(O)C(=O)CO [Dexamethasone] | ✓ (>50% dissolution in 3 min at 30 rpm) | 44 mL |  |  |  |  |  |  |  |  |  |  |  |  | 
CCCc1nn(C)c2c(=O)[nH]c(-c3cc(S(=O)(=O)N4CCN(C)CC4)ccc3OCC)nc12 [Sildenafil citrate] |  |  |  | 92% | 96% | 95% | 97% | 96% | 95% | 97% | 97% | 100% | 100% | 100% | 40 mL
